Results from PubChem BioAssay AID1347075 (National Center for Advancing Translational Sciences (NCATS), 2019).
In all, about 400,000 compounds went through this assay and about 5,500 (1.4%) were called active. Inconclusive means that the source gave no clear call. Such entries were picked first, then a sample of the others. Calls follow the shape of the dose curve; as a rule, active = well fitted cell-killing curve with a large enough effect; inconclusive = small, poorly fitted or top-dose-only effect, or effect the other way; inactive = flat fitted curve, though single readings scatter. Potencies of inconclusive entries are doubtful fits and often do not repeat.

Assay: qHTS assay for MDR1-selective chemotherapeutics: Primary screen using the parental adenocarcinoma cell KB-3-1; also: nearly all actives have a fitted effect of over 60% in size
Settings: KB-3-1 viability, CellTiter-Glo ATP luminescence, 72 h; activity change, negative = cytotoxic: at 46.1 µM (top of the series)
In short: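 KB-3-1 parental drug-naive adenocarcinoma cells in DMEM/10% FBS, incubated 72 h at 37 C with pin-transferred compounds across a concentration series. Viability by CellTiter-Glo luminescence; concentration-response curves fitted after normalization.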
% is scaled to controls: 0 for no effect and ±100 for the full control effect; potency is read from the fitted curve at half-maximal effect.

| Structure (SMILES) | activity change, negative = cytotoxic | Potency |
| --- | --- | --- |
| CCOC(=O)c1nn(-c2ccc(Cl)cc2)c2nnc(Cc3ccccc3)c(=O)n12 | inactive: 13.1% |  |
| COc1cc(SC)ccc1C(=O)NCCOc1ccc(F)cc1 | inactive: -2.12% |  |
| COc1ccc(NC(=O)N2CCN(S(=O)(=O)c3ccc4c(ccn4C)c3)CC2)cc1OC | inactive: -7.05% |  |
| c1ccc(-c2nc(N3CCN(c4ccccc4)CC3)nc(-n3ccnc3)n2)cc1 |  | inconclusive: 23.1 µM [cytotoxic, single point] |
| COc1ccc(CCNC(=O)C(CCC(N)=O)NS(=O)(=O)c2ccc(Cl)cc2)cc1OC (centres undefined) |  | inconclusive: 0.92 µM [rising, full curve] |
| O=C(CC1(O)C(=O)N(Cc2cccc3ccccc23)c2ccccc21)c1cccnc1 (centres undefined) |  | active: 20.6 µM |
| Cc1cc(OC(F)F)ccc1NC(=O)Nc1ccc([N+](=O)[O-])cc1 |  | inconclusive: 29.1 µM [cytotoxic, single point] |
| O=C1OC(c2ccccc2)(c2ccc(O)cc2)c2ccccc21 (centres undefined) | inactive: 11.5% |  |
| Cc1occc1C(=O)NCc1nc(-c2ccccc2)no1 | inactive: 2.37% |  |
| CCCCCc1c(-c2ccc(F)cc2)ncn1CCc1ccccc1OC |  | active: 18.4 µM |
| CCCN1C(=O)/C(=C/c2ccc3c(c2)OCO3)NC1=S | inactive: 4.47% |  |
| N#Cc1ccc(NC(=O)COC(=O)C2Cc3ccccc3CN2C(=O)c2ccccc2)cc1 (centres undefined) | inactive: 24.1% |  |
| Cc1nnc(SCC(=O)Nc2sc3c(c2C#N)CCCC3)[nH]c1=O | inactive: -8.41% |  |
| Oc1ccc(C[C@H]2CNC(=S)N2C[C@H]2CCCN2C[C@H](Cc2ccccc2)N2C[C@H](Cc3ccc(O)cc3)N(CC3CCCCCC3)C2=S)cc1 |  | inconclusive: 29.1 µM [cytotoxic, single point] |
| CCC1(C)CC(CCNS(=O)(=O)c2ccc(C)cc2)(c2ccc(C)cc2)CCO1 (centres undefined) |  | inconclusive: 25.9 µM [cytotoxic, single point] |
| O=C(N/N=C/c1cccc2cccnc12)[C@H]1C[C@@H]1c1ccccc1 |  | inconclusive: 14.6 µM [cytotoxic, partial curve, poor fit] |
| O=C(Nc1ccccn1)c1ccc([N+](=O)[O-])o1 |  | inconclusive: 29.1 µM [cytotoxic, single point] |
| O=C(/C=C/c1cn(CC(O)CN2CCCCCC2)c2ccccc12)c1cccs1 (centres undefined) |  | inconclusive: 16.4 µM [cytotoxic, single point] |
| C=CCc1ccccc1OCC(O)CN(C(C)C)C(C)C (centres undefined) | inactive: 2.73% |  |
| O=C(Nc1nccs1)c1cc(-c2ccccn2)nc2c(Cl)cccc12 | inactive: -4.43% |  |
| CCN1CCN(CCNC(=O)C2CCCN(Cc3nc(-c4cccc(Cl)c4)oc3C)C2)CC1 (centres undefined) | inconclusive: -31.2% |  |
| O=C1CN(C(=O)c2ccc(Br)o2)C(c2ccccc2)c2cc(Cl)ccc2N1 (centres undefined) |  | inconclusive: 29.1 µM [cytotoxic, single point] |
| CC(=O)c1ccc(OCC(O)CN2CCN(CCN3C(=O)c4cccc5cccc(c45)C3=O)CC2)cc1 (centres undefined) |  | inconclusive: 16.4 µM [cytotoxic, single point] |

| Structure (SMILES) | activity change, negative = cytotoxic | Potency |
| --- | --- | --- |
| CCc1ccc(-c2cc(C)no2)cc1S(=O)(=O)N1CCN(c2ccc(F)cc2)CC1 |  | inconclusive: 29.1 µM [cytotoxic, single point] |
| CC(=Nc1ccccc1)c1sc2ccccc2c1O | inactive: -23.6% |  |
| CC(C)N(CCNC(=O)c1ccc(NC2=NC3CS(=O)(=O)CC3S2)cc1)Cc1ccco1 (centres undefined) |  | inconclusive: 14.6 µM [rising, partial curve, poor fit] |
| COc1ccc(N(C(=O)c2snc(C(N)=O)c2N)C(CC(C)C)C(=O)NCC2CCCO2)cc1 (centres undefined) |  | inconclusive: 29.1 µM [rising, single point] |
| CCN(C(=O)c1ccccc1F)c1nc(-c2ccc(OC)cc2)cs1 |  | inconclusive: 29.1 µM [cytotoxic, single point] |
| NC(=O)CCC(=O)N1CCCC(C(=O)c2ccc(C(F)(F)F)cc2)C1 (centres undefined) | inactive: 15.4% |  |
| COCCNc1cc(C)nc2c3c(C)cc(C)nc3nn12 |  | inconclusive: 23.1 µM [rising, partial curve, poor fit] |
| CC(C)(C)N1C(=O)c2ccccc2NC(=O)C1C(=O)Nc1ccc(N2CCOCC2)cc1 (centres undefined) | inactive: 11.4% |  |
| CCCn1c(N2CCN(CC(=O)c3c[nH]c4ccccc34)CC2)nc2c1c(=O)[nH]c(=O)n2C | inactive: 2.94% |  |
| Cc1[nH]n(C(N)=S)c(=O)c1N=Nc1cccc(C(F)(F)F)c1 |  | inconclusive: 29.1 µM [cytotoxic, single point] |
| CC(=O)c1cccc(NC2c3ccccc3C(=O)N2Cc2ccc3c(c2)OCO3)c1 (centres undefined) | inactive: -0.492% |  |
| O=C1N/C(=N\N=C\c2cccs2)SC1Cc1cccc(Cl)c1 (centres undefined) |  | inconclusive: 29.1 µM [cytotoxic, single point] |
| Cc1nn(CC(=O)N2CCC(C)CC2)c(=O)c2cc3occc3n12 | inactive: -12.6% |  |
| O=C1c2ccccc2-c2cccc(NS(=O)(=O)c3ccc(C(F)(F)F)cc3)c21 |  | inconclusive: 25.9 µM [cytotoxic, single point] |
| CCC(OC(=O)CN1C(=O)C(=O)c2ccccc21)C(=O)Nc1ccccc1OC (centres undefined) | inactive: 5.83% |  |
| COc1ccc(Nc2nc(-c3cccs3)nc3ccccc23)cc1S(=O)(=O)N1CCOCC1 |  | inconclusive: 29.1 µM [cytotoxic, single point] |
| O=C(OCC(=O)N1CCc2ccccc2C1)c1c(F)cccc1Cl | inactive: -6.09% |  |
| O=C(Cn1cnc2onc(-c3ccc(F)cc3)c2c1=O)Nc1cccc(C(F)(F)F)c1 | inactive: 4.34% |  |
| CN(C)CCN(Cc1ccco1)C(=O)c1cc2c(Cl)nc3ccccc3c2s1 |  | inconclusive: 23.1 µM [cytotoxic, single point] |
| CCOC(=O)c1nnn(CC(=O)Nc2cc(C)cc(C)c2)c1C(=O)OCC | inactive: 0.778% |  |
| COc1ccccc1CNC(=O)c1cc2cccc3c2n1CC(C)S3 (centres undefined) |  | inconclusive: 16.4 µM [cytotoxic, single point] |
| CCOC(=O)c1c(NC(=O)COC(=O)c2ccccn2)sc2c1CCC2 |  | inconclusive: 20.6 µM [rising, partial curve, poor fit] |
| Cc1noc(C)c1-c1ccc2nc[nH]c(=O)c2c1 |  | active: 13 µM |

Some of the entries so far, bar-delimited:
Structure (SMILES) | activity change, negative = cytotoxic | Potency
Cc1occc1C(=O)NCc1nc(-c2ccccc2)no1 | inactive: 2.37% | 
CCCCCc1c(-c2ccc(F)cc2)ncn1CCc1ccccc1OC |  | active: 18.4 µM

Reformatted as comma-separated lines: entries from further up.
Structure (SMILES),"activity change, negative = cytotoxic",Potency
CCOC(=O)c1nnn(CC(=O)Nc2cc(C)cc(C)c2)c1C(=O)OCC,inactive: 0.778%,
COc1ccccc1CNC(=O)c1cc2cccc3c2n1CC(C)S3 (centres undefined),,"inconclusive: 16.4 µM [cytotoxic, single point]"
CCOC(=O)c1c(NC(=O)COC(=O)c2ccccn2)sc2c1CCC2,,"inconclusive: 20.6 µM [rising, partial curve, poor fit]"

(listing goes on)

| Structure (SMILES) | activity change, negative = cytotoxic | Potency |
| --- | --- | --- |
| CCOC(=O)C(Cc1ccccc1)NC(=O)CNC(=O)CNC(=O)OCc1ccccc1 (centres undefined) |  | inconclusive: 13 µM [rising, partial curve, poor fit] |
| Cc1cccc(OCC(=O)N(C)CCc2ccccn2)c1 |  | inconclusive: 0.0073 µM [rising, full curve] |
| COc1ccc(OC)c(NC(=S)NCCC(c2ccccc2)c2ccccc2)c1 |  | inconclusive: 16.4 µM [cytotoxic, single point] |
| COc1ccc2cc3c(N)nn(C(=O)c4cccc([N+](=O)[O-])c4)c3nc2c1 |  | inconclusive: 14.6 µM [rising, single point] |
| CCC(c1nnnn1Cc1ccc2c(c1)OCO2)N1CCN(c2ccc(F)cc2)CC1 (centres undefined) |  | inconclusive: 29.1 µM [cytotoxic, single point] |
| CCc1ccc(NSc2ccccc2[N+](=O)[O-])cc1 |  | inconclusive: 20.6 µM [cytotoxic, single point] |
| CC(C)OCCCn1c(SC(C)C(=O)NC2CC2)nc2ccccc2c1=O (centres undefined) | inactive: 9.9% |  |
| Cc1ccc(NC(=O)c2ncn(CCCN[C@H](C)c3cccc4ccccc34)n2)cc1C | inactive: 0% |  |
| Cc1ccc2[nH]c(=O)c(CN(C(=O)c3cccs3)c3ccccc3)cc2c1 |  | inconclusive: 29.1 µM [cytotoxic, single point] |
| Cc1ccc(S(=O)(=O)CC(=O)Nc2ccc(F)c(F)c2F)cc1 | inactive: 2.43% |  |
| COc1ccc(OCCSCc2nnc(NC(=O)Nc3ccc(Cl)cc3)s2)cc1 |  | inconclusive: 0.651 µM [cytotoxic, partial curve] |
| CC1=C2C3OC(=O)C(C)C3CCC2(C)C=C(Br)C1=O (centres undefined) |  | inconclusive: 20.6 µM [cytotoxic, partial curve, poor fit] |
| Cc1cc(-c2ccccc2)n2nc(-c3cccc(Br)c3)cc2n1 | inactive: -3.9% |  |
| Cc1cc(C)c(NC(=O)CSc2nnc(-c3ccncc3)n2Cc2ccco2)c(Cl)c1 |  | inconclusive: 5.8 µM [rising, partial curve] |
| COc1ccccc1C(=O)N1C(CC(=O)Nc2ccc(C)c(C)c2)C(=O)NC2CCCCC21 (centres undefined) |  | inconclusive: 29.1 µM [cytotoxic, single point] |
| COc1ccccc1N1CCN(C(=O)C(=O)c2cn(CC(=O)N3CCCCCC3)c3ccccc23)CC1 |  | inconclusive: 16.4 µM [rising, single point] |
| CSc1nc(N)nc(SCC(=O)Nc2cccc(F)c2)c1C#N |  | inconclusive: 32.6 µM [cytotoxic, single point] |
| Cc1cccc(NC(=O)c2nc[nH]c2C(=O)N[C@H](C)c2ccccc2)c1 |  | inconclusive: 29.1 µM [cytotoxic, single point] |
| COc1ccc(Nc2nc(C)nc3sc4c(c23)CCC4)cc1O |  | inconclusive: 29.1 µM [cytotoxic, single point] |
| CCOC(=O)c1oc2ccc3c(c2c1C)C(=O)CC1(CCN(C(=O)OCC)CC1)O3 |  | inconclusive: 20.6 µM [cytotoxic, single point] |
| CSCCC(NS(=O)(=O)c1ccc2c(c1)oc(=O)n2C)C(=O)NCc1ccccc1 (centres undefined) |  | inconclusive: 25.9 µM [rising, single point] |
| COc1ccc(-c2cc(C(=O)Nc3cccc(O)c3)no2)cc1 | inactive: 9.25% |  |
| C#CCOCCOCCOCCNc1nc(N2CCN(C(=O)CCCCCCCCCCNC(=O)Cn3cc(C[C@@H](C)O)nn3)CC2)nc(N2CCN(C(=O)CCCCCCCCCCNC(=O)[C@@H]([C@H](C)O)n3cc(C)nn3)CC2)n1 |  | inconclusive: 29.1 µM [cytotoxic, single point] |
